These are yes or no findings as the source states them, for the method shown. In cells and extracts the contact can be indirect. Some binding calls cover weakened binding; strength is not graded here. Where a sequence is shown, tags or fusion partners need not be part of it.
Experiments:
HA-14-3-3 gamma = target: T1, HA-14-3-3 gamma (UniProt P61981); experiment: co-IP; HEK293T co-transfected with GFP-Sept7-WT and HA-14-3-3 gamma, zeta or both; 0.1 μM okadaic acid for 10 min before lysis; anti-HA affinity gel; blot for pT426 Sept7 and HA
T1 sequence: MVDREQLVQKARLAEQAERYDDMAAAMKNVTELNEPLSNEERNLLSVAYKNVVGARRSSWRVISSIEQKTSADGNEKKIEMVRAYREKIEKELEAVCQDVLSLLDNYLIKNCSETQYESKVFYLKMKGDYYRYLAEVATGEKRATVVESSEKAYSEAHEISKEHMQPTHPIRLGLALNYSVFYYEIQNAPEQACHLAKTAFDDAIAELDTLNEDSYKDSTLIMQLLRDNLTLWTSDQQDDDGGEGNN

The chains behind the UniProt entries cited, without tags or fusion partners.
UniProt P63104: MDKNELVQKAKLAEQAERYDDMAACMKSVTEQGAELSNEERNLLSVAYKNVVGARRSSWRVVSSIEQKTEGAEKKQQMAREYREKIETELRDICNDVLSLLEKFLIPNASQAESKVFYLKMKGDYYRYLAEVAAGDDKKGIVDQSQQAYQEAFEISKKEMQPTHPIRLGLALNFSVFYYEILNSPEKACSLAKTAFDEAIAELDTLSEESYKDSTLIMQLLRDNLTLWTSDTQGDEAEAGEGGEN

HA-14-3-3 zeta = HA-14-3-3 zeta (UniProt P63104); experiment: as above

B1: GFP-tagged Sept7-WT, phosphorylated at T426 (protein, UniProt Q16181 1-437)
chain: MSVSARSAAAEERSVNSSTMVAQQKNLEGYVGFANLPNQVYRKSVKRGFEFTLMVVGESGLGKSTLINSLFLTDLYSPEYPGPSHRIKKTVQVEQSKVLIKEGGVQLLLTIVDTPGFGDAVDNSNCWQPVIDYIDSKFEDYLNAESRVNRRQMPDNRVQCCLYFIAPSGHGLKPLDIEFMKRLHEKVNIIPLIAKADTLTPEECQQFKKQIMKEIQEHKIKIYEFPETDDEEENKLVKKIKDRLPLAVVGSNTIIEVNGKRVRGRQYPWGVAEVENGEHCDFTILRNMLIRTHMQDLKDVTNNVHYENYRSRKLAAVTYNGVDNNKNKGQLTKSPLAQMEEERREHVAKMKKMEMEMEQVFEMKVKEKVQKLKDSEAELQRRHEQMKKNLEAQHKELEEKRRQFEDEKANWEAQQRILEQQNSSRTLEKNKKKGKIF
modifications: phosphothreonine at T426 (detected with the pT426 antibody)
B1 was tested. Which binding (HA-14-3-3 gamma) did it give?
Its binding is “binds”.

And the binding (HA-14-3-3 zeta)?
Its binding is “no binding”.
